According to PubChem BioAssay AID1671190 (National Center for Advancing Translational Sciences (NCATS), 2021):
The whole screen tested about 580,000 compounds, of which about 6,100 (1.1%) were called active. The inconclusive results got no clear call from the source; some entries with a clear call stand among them for comparison. Calls follow the shape of the dose curve; as a rule, active = well fitted inhibition curve with a large enough effect; inconclusive = small, poorly fitted or top-dose-only effect, or another doubt; inactive = no such curve, though single readings can be large or run the other way. Potencies of inconclusive entries are doubtful fits and often do not repeat.

Sequences of proteins named here, by UniProt entry; tags and fusion partners are left off. A change or cut given only in a name is not applied to a line headed by its entry.
UniProt P18054: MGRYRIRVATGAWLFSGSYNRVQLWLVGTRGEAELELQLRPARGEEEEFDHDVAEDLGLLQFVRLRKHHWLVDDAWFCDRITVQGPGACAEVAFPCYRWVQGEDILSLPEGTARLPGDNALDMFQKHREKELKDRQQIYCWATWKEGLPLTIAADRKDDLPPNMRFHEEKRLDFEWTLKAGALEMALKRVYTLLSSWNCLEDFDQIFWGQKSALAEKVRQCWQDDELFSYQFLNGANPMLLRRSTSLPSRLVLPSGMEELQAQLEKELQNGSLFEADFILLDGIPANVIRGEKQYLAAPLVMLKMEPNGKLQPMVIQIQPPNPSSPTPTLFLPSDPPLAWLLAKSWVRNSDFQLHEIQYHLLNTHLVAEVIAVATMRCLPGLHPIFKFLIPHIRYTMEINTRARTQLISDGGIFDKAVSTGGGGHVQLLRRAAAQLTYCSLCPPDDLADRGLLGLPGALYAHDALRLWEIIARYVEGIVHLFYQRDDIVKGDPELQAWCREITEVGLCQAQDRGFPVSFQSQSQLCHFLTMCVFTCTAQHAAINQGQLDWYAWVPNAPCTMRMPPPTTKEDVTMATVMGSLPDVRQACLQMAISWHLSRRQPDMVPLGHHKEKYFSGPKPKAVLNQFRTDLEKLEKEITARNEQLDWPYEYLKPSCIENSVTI

Molecular target: Polyunsaturated fatty acid lipoxygenase ALOX12 (Homo sapiens) (UniProt P18054)
Experiment: Primary qHTS assay for inhibitors of human arachidonate 12S-lipoxygenase (ALOX12): Round 2
Settings: purified 12hLO, xylenol orange hydroperoxide absorbance; series mostly up to 108 µM
Procedure, shortened: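 Hydroperoxide product was detected by ferrous iron/xylenol orange as the 573 to 405 nm absorbance ratio. Arachidonic acid at 40 uM (final) was turned over for 30 min at room temperature by 150 nM human 12hLO, pH 7.0 Hepes buffer, after 15 min compound preincubation.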
Potency is read from the fitted curve at half-maximal effect.

SMILES | Potency
Cc1ccccc1CSc1nc(-c2ccccc2)nc2c1Cc1c(CO)cnc(C)c1O2 | inconclusive: 158 µM [inhibitor, partial curve, poor fit]
Cc1ccnc(-n2c(SCC(=O)N3CCCC3=O)nc3ccccc3c2=O)c1 | inconclusive: 39.8 µM [inhibitor, single point]
CNC(=O)c1nn(CC(=O)N(C)C2CCCCC2)c(=O)c2ccccc12 | inconclusive: 56.2 µM [inhibitor, full curve, poor fit]
O=C(COC(=O)c1ccccc1Nc1ccccc1)c1ccccc1 | inactive
COc1ccc2[nH]c3c(=S)nc[nH]c3c2c1 | inconclusive: 11.2 µM [inhibitor, full curve]
CC(=O)Nc1ccc2c(c1)CCc1ccccc1-2 | inactive
COc1ccc(N2CCC(CNC(=O)Nc3ccc(Cl)cc3)C2)cc1 (stereo not given) | inconclusive: 50.1 µM [inhibitor, partial curve, poor fit]
COc1cccc(C(=O)NCC(c2ccc(N(C)C)cc2)N2CCOCC2)c1OC (stereo not given) | inactive
Cn1c(SCC(=O)Nc2ccc(F)cc2)nc2c([nH]c3ccccc32)c1=O | inconclusive: 3.98 µM [inhibitor, full curve, poor fit]
O=C(Nc1ccc(O)c2c(=O)cc(-c3ccccc3Cl)oc12)c1ccc(Cl)c(Cl)c1 | inconclusive: 0.501 µM [inhibitor, full curve]
COc1ccc(C(C(=O)NCCC(C)C)N(CCO)C(=O)c2snc(C(N)=O)c2N)cc1OC (stereo not given) | inconclusive: 17.8 µM [inhibitor, partial curve, poor fit]
Cc1noc(C)c1S(=O)(=O)NCC1(COc2ccc(C(F)(F)F)cn2)C[C@@H](O)[C@@H](O)C1 (stereo not given in full) | inconclusive: 28.2 µM [inhibitor, full curve]
O=C(N=Nc1ccc(NOC(=O)c2ccccc2Br)cc1)c1ccccc1O | inactive
CCOC(=O)CCCCCC(=O)Nc1ccc2c(c1)C(=O)N([C@H](C)CO)C[C@H](C)[C@@H](CN(C)S(C)(=O)=O)OCCCC[C@@H](C)O2 | inconclusive: 89.1 µM [inhibitor, single point]
CN1/C(=C\C=C2/SC(=S)N(CC(=O)O)C2=O)C(C)(C)c2ccccc21 | inactive
COCCN=c1scc(-c2cccs2)n1/N=C/c1ccc(O)c(O)c1O | inconclusive: 12.6 µM [inhibitor, full curve, poor fit]
CN(C)c1cccc(C(=O)Nc2ccc(CC#N)cc2)c1 | inconclusive: 35.5 µM [inhibitor, single point]
CC(C)CN(C(=O)COC(=O)COc1ccc2ccccc2c1)c1c(N)n(Cc2ccccc2)c(=O)[nH]c1=O | inconclusive: 112 µM [inhibitor, single point]
Cn1cc(C(=O)O)c(=O)c2cc(S(=O)(=O)N3CCCCC3)ccc21 | inactive
CCN(CC)C(=O)[C@H]1CC(CC(=O)NCC23CC4CC(CC(C4)C2)C3)C(=O)N2CCc3c([nH]c4ccc(OC)cc34)[C@]12C (stereo not given in full) | inconclusive: 44.7 µM [inhibitor, partial curve, poor fit]
Cc1ccc(S(=O)(=O)N(C)CC2CCOCC2)cc1C | inactive
Cc1ccc(NC(=O)C(Cc2ccccc2)NS(=O)(=O)c2ccc3c(c2)c(=O)n(C)c(=O)n3C)cc1 (stereo not given) | inconclusive: 141 µM [inhibitor, partial curve, poor fit]

SMILES | Potency
Oc1ccc(N=Cc2c(O)ccc3ccccc23)cc1 | inconclusive: 44.7 µM [inhibitor, partial curve, poor fit]
COc1cccc(NC(=O)CN(C)C(=O)c2cccc(NS(=O)(=O)c3ccccc3)c2)c1 | inactive
COC(=O)[C@H]1CN(C(=O)NC(C)C)CCN1C(=O)c1cccnc1 | inconclusive: 39.8 µM [inhibitor, full curve, poor fit]
CCCC(=O)Oc1c(Sc2ccc(Cl)cc2)c(C)nn1-c1ccccc1 | active: 44.7 µM
COc1ccc(OC)c(C2C(C(N)=O)=C(C)Nc3nc(-c4cccc(Cl)c4)nn32)c1 (stereo not given) | inconclusive: 50.1 µM [inhibitor, partial curve, poor fit]
Cc1cccn2c(=O)c3cc(C(=O)NCCc4ccc(S(N)(=O)=O)cc4)n(C)c3nc12 | inactive
FC(F)(F)c1cccc(-n2nnnc2C2(NC3CCCCC3)CCCC2)c1 | inconclusive: 126 µM [inhibitor, single point]
CSc1ccccc1OCc1cc(C(=O)NCCn2nc(C)cc2C)no1 | inactive
COc1ccc(-c2cc(OC(=O)c3cccc(Br)c3)c3c(C)oc(C)c3c(=O)c2)cc1 | active: 4.47 µM
O=C(Nc1cccc(F)c1)C1CC(=O)N(c2ccc(Br)cc2)C1 (stereo not given) | inconclusive: 100 µM [inhibitor, single point]
CCC(C)NC(=S)N1CCN(C)CC1 (stereo not given) | inconclusive: 1.12 µM [inhibitor, full curve, poor fit]
NC1=NC(=O)/C(=C/c2cc(Br)c(O)c(Br)c2)S1 | inactive
Cc1ccccc1-n1c(Cc2cccs2)n[nH]c1=S | inconclusive: 50.1 µM [inhibitor, partial curve, poor fit]
Cc1ccccc1N=C1NC(=O)/C(=C/c2cccn2C)S1 | inconclusive: 25.1 µM [inhibitor, single point]
COc1ccc(CCNC(=O)CCn2c(=O)c3ccccc3n(CC(=O)Nc3cccc(C)c3)c2=O)cc1OC | inconclusive: 112 µM [inhibitor, partial curve, poor fit]
Cc1ccc2nc(C(C)(C)C)c(Cc3ccsc3)n2c1 | active: 6.31 µM
COC(=O)c1ccc(C2NC(=O)NC(C)=C2C(=O)N2CCOCC2)cc1 (stereo not given) | inconclusive: 39.8 µM [inhibitor, partial curve, poor fit]
CC1=C(C(=O)O)N2C(=O)C(NC(=O)c3nn(C)c(C)c3Cl)C2SC1 (stereo not given) | inconclusive: 44.7 µM [inhibitor, partial curve, poor fit]
Cc1cc(C(C#N)c2ccc(Cl)cc2)c(Cl)cc1NC(=O)c1cc(I)cc(I)c1O (stereo not given) | inconclusive: 11.2 µM [inhibitor, full curve, poor fit]
CC(=O)C1=CCC(c2ccco2)N(S(=O)(=O)c2ccc(C)cc2)C1 (stereo not given) | inconclusive: 126 µM [inhibitor, single point]
NC(=O)c1c(N)sc2c1CCC2 | inactive
COc1ccc(CC2(CO)CCN(C/C=C/c3ccccc3OC)CC2)cc1 | inconclusive: 25.1 µM [inhibitor, partial curve]

Gathered by group: those above containing a cyano group.
SMILES | Potency
CN(C)c1cccc(C(=O)Nc2ccc(CC#N)cc2)c1 | inconclusive: 35.5 µM [inhibitor, single point]
Cc1cc(C(C#N)c2ccc(Cl)cc2)c(Cl)cc1NC(=O)c1cc(I)cc(I)c1O (stereo not given) | inconclusive: 11.2 µM [inhibitor, full curve, poor fit]

Next structures

SMILES | Potency
O=C(Nc1ccc(N2CCCCCC2)cc1)c1ccccc1Cl | inactive
Cc1ccccc1CC(=O)N1CCC2(CC1)NC(=O)N(c1ccccc1)N2 | active: 1.26 µM
O=C1Nc2ccccc2CNC12CCN(CC1CCCC1)CC2 | inconclusive: 112 µM [inhibitor, partial curve, poor fit]
Cc1c(/C(O)=C2/C(=O)C(=O)N(CCN3CCOCC3)C2c2ccco2)cnn1-c1ccccc1 (stereo not given) | inconclusive: 126 µM [inhibitor, partial curve, poor fit]
O=C(NC1CCCC1)C(c1cccnc1)N(C(=O)c1csnn1)c1ccccc1Cl (stereo not given) | inactive
Cc1ccc(/C=[N+](\[O-])c2ccccc2)cc1 | inconclusive: 31.6 µM [inhibitor, single point]
N#CCC(=O)Nc1ccc(C(=O)OCc2cccc(F)c2F)cc1 | inconclusive: 112 µM [inhibitor, partial curve, poor fit]
O=C(CSc1nc2scc(-c3ccccc3)c2c(=O)[nH]1)Nc1ccccc1 | inconclusive: 15.8 µM [inhibitor, partial curve, poor fit]
Cc1ccc(N2CCN(C(=O)C(=O)c3ccc4c(c3)OCO4)CC2)cc1 | inconclusive: 39.8 µM [inhibitor, partial curve, poor fit]
COC(=O)C1=C(C)N=C2SC=C(CC(=O)N3CCC(C)CC3)N2C1c1ccccc1Cl (stereo not given) | inactive
COc1cccc(C2CC(=O)Nc3ccsc32)c1OCc1ccc(Cl)cc1 (stereo not given) | inconclusive: 50.1 µM [inhibitor, partial curve, poor fit]
Cc1ccc(-c2csc(C(O)(c3ccccc3)C(F)(F)F)n2)cc1C (stereo not given) | inconclusive: 44.7 µM [inhibitor, partial curve, poor fit]
CCNc1ccc([N+](=O)[O-])cc1 | inconclusive: 100 µM [inhibitor, single point]
CCC(C)NC(=O)C1CCN(C(=O)c2cc3sccc3n2Cc2ccc(Cl)cc2)CC1 (stereo not given) | inactive
COc1ccc(OC)c(Nc2nnc(C)c(=O)[nH]2)c1 | inconclusive: 50.1 µM [inhibitor, partial curve, poor fit]
CNCc1ccc(OCc2ccccc2Cl)c(OC)c1 | inconclusive: 44.7 µM [inhibitor, partial curve, poor fit]
COc1ccccc1CN1CCN(C(=O)c2ccncc2)CC1 | inconclusive: 2.24 µM [inhibitor, full curve, poor fit]
COc1ccc(C2C(C#N)=C3NC(=O)c4c(sc5c4CCCCC5)N3C3=C2C(=O)CC(C)(C)C3)cc1 (stereo not given) | inactive
Cc1ccc(C)c(S(=O)(=O)c2nnn3c2nc(N2CCCC2)c2sccc23)c1 | inconclusive: 141 µM [inhibitor, partial curve, poor fit]
COc1cccc(F)c1-c1nc(C)c(C(=O)Nc2ccc(NC(C)=O)cc2)s1 | inactive
CCOC(=O)Nc1ccc2c(CNC(C)c3ccccc3OC)cc(=O)oc2c1 (stereo not given) | inactive
